PubChem BioAssay AID743454 – Peter MacCallum Cancer Centre – 2014
This is a random part of about 18,000 deposited reagents. 450 of all reagents (2.5%) count as active. 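Single biological run; no consistent viability z cut-off exists, so the class columns, not z-scores, define the calls.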 Entries without a mark were called inactive.

- Purpose: 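Search for knock-downs that restore vorinostat killing in resistant colon cancer cells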 (primary screen)
- System: human HCT116-VR colon cancer cells, selected for vorinostat resistance
- Knock-down reagent: siRNA pool against human genes, 40 nM siRNA pool
- Duration: vorinostat for 24 h, read-out about 72 h after transfection
- Treatment: vorinostat at 2.5 µM final
- Read-out: 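Two measures, CellTiter-Fluor viability and luminescent caspase 3/7 activity, each as fold change against same-plate mock wells, mean of duplicates, then screen-wide robust z-score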
- Direction: viability robust z-score: higher = more viable cells than screen typical; caspase robust z-score: higher = more caspase 3/7 activity than screen typical
- Active means: 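a knock-down is a hit when classed RV1 or RV2 for lowered viability, or CA1 or CA2 for caspase activation; those lethal without drug were dropped; hits were retested singly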

LRMDA (GeneID 83938) → viability hit class = no change; caspase hit class = no change; viability robust z-score = -0.18; caspase robust z-score = -1.23
ZCCHC2 (GeneID 54877) → viability hit class = no change; caspase hit class = no change; viability robust z-score = 0.12; caspase robust z-score = -0.32
PLGLB1 (GeneID 5343) → viability hit class = no change; caspase hit class = no change; viability robust z-score = 0.32; caspase robust z-score = 0.07
WFDC1 (GeneID 58189) → viability hit class = no change; caspase hit class = no change; viability robust z-score = 0.52; caspase robust z-score = 1.75
MSLN (GeneID 10232) → viability hit class = no change; caspase hit class = no change; viability robust z-score = -2.17; caspase robust z-score = -0.42
THNSL1 (GeneID 79896) → viability hit class = no change; caspase hit class = no change; viability robust z-score = 0.7; caspase robust z-score = -0.9
GSTA1 (GeneID 2938) → viability hit class = no change; caspase hit class = no change; viability robust z-score = -0.14; caspase robust z-score = 0.86
NR4A1 (GeneID 3164) → viability hit class = no change; caspase hit class = no change; viability robust z-score = -0.19; caspase robust z-score = 1.16
TAS2R42 (GeneID 353164) → viability hit class = no change; caspase hit class = no change; viability robust z-score = -0.15; caspase robust z-score = 1.27
SLC27A3 (GeneID 11000) → viability hit class = no change; caspase hit class = no change; viability robust z-score = -0.56; caspase robust z-score = 0.3
LONRF2 (GeneID 164832) → viability hit class = no change; caspase hit class = no change; viability robust z-score = -1.77; caspase robust z-score = 2.1
NOS1 (GeneID 4842) → viability hit class = no change; caspase hit class = no change; viability robust z-score = 0.29; caspase robust z-score = 3.56
TMEM117 (GeneID 84216) → viability hit class = no change; caspase hit class = no change; viability robust z-score = 0.56; caspase robust z-score = -0.5
SPINK1 (GeneID 6690) → viability hit class = no change; caspase hit class = no change; viability robust z-score = 0.74; caspase robust z-score = 0.27
CGB1 (GeneID 114335) → viability hit class = no change; caspase hit class = no change; viability robust z-score = 0.48; caspase robust z-score = 0.19
ETV6 (GeneID 2120) → viability hit class = no change; caspase hit class = no change; viability robust z-score = 0.8; caspase robust z-score = 0.01
H2BC11 (GeneID 8970) → viability hit class = no change; caspase hit class = no change; viability robust z-score = 0.25; caspase robust z-score = -0.24
MRAP (GeneID 56246) → viability hit class = no change; caspase hit class = no change; viability robust z-score = -0.14; caspase robust z-score = 0.4
DLAT (GeneID 1737) → viability hit class = no change; caspase hit class = no change; viability robust z-score = 1.02; caspase robust z-score = 0.2
ARPC1A (GeneID 10552) → viability hit class = no change; caspase hit class = no change; viability robust z-score = 0.8; caspase robust z-score = 0.42
RABEPK (GeneID 10244) → viability hit class = no change; caspase hit class = no change; viability robust z-score = -1.61; caspase robust z-score = -1.07

Targets listed so far whose gene name starts with S or s:
SLC27A3 (GeneID 11000) → viability hit class = no change; caspase hit class = no change; viability robust z-score = -0.56; caspase robust z-score = 0.3
SPINK1 (GeneID 6690) → viability hit class = no change; caspase hit class = no change; viability robust z-score = 0.74; caspase robust z-score = 0.27
